Measured values taken from paper PMC11840735.
No constants are given. Whether binding was seen depends on the method and setting. In cells and extracts the contact can be indirect. Some binding calls cover weakened binding; strength is not graded here.

Amino acid sequences for entries named in this document (tags omitted).
UniProt Q6P6C2: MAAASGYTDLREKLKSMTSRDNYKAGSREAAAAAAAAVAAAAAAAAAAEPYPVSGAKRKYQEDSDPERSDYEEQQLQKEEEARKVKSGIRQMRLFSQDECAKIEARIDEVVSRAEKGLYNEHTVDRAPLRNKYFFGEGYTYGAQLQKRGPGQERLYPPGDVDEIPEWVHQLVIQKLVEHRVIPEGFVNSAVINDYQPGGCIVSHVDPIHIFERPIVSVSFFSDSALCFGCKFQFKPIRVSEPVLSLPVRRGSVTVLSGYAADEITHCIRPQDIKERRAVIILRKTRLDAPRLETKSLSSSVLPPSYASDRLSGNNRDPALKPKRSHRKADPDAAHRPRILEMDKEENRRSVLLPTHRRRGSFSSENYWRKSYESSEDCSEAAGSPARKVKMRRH
UniProt Q9P2P5: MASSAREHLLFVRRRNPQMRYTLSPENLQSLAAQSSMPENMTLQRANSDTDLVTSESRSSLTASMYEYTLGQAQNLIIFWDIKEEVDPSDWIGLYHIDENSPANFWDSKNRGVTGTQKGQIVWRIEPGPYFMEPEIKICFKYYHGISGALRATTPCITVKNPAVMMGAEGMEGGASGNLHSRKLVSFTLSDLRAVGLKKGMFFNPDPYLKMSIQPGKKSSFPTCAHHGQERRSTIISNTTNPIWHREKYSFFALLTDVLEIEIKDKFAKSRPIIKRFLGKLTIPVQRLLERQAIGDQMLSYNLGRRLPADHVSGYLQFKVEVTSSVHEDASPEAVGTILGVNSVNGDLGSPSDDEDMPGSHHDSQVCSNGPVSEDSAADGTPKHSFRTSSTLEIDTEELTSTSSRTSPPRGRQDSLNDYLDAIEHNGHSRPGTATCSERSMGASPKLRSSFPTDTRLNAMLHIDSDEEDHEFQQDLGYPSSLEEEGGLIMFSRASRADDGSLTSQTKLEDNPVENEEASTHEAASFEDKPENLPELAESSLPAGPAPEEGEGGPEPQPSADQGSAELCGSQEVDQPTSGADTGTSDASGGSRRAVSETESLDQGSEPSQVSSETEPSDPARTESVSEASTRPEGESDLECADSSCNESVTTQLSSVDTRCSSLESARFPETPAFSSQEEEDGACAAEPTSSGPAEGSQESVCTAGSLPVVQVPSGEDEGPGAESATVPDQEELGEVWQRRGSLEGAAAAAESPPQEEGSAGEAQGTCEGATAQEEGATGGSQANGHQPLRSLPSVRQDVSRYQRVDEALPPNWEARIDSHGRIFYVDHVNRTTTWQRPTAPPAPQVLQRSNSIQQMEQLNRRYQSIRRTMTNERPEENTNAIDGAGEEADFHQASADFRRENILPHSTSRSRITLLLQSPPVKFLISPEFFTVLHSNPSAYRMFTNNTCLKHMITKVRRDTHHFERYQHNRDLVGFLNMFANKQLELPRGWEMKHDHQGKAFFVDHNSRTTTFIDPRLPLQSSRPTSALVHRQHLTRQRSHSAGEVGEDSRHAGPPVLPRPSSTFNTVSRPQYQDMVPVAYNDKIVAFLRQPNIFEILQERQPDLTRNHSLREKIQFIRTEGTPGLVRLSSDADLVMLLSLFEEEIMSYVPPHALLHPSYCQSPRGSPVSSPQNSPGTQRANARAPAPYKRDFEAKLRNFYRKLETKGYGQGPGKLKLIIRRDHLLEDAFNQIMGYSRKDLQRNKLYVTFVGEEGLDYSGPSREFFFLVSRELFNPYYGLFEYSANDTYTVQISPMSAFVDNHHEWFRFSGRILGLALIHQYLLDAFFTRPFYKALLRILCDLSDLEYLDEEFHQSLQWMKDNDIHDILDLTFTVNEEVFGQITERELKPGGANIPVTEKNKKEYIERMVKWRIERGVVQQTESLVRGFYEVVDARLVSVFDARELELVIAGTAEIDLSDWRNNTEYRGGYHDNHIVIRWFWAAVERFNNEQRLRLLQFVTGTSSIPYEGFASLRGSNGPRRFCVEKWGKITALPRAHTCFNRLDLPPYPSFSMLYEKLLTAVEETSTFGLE
UniProt Q9P289: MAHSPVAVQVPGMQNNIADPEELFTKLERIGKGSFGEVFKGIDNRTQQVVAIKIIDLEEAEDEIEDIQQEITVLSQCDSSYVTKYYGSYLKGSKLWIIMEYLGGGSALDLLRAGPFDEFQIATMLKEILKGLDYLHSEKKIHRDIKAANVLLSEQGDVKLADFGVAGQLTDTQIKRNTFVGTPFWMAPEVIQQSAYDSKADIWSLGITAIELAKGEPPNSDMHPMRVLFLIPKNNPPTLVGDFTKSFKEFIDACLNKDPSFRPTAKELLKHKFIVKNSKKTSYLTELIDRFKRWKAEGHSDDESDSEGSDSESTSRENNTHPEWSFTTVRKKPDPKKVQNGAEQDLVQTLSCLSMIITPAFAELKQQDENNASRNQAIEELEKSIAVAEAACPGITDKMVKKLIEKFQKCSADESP

How the values were obtained:
[1] = target: ALKBH5 WT in HEK293T cells (human) (UniProt Q6P6C2); assay: co-IP; IP-IB from lysates of HEK293T cells with the indicated plasmids
[2] = target: endogenous ALKBH5 of GSCs (human (endogenous in patient-derived GSCs)) (UniProt Q6P6C2); assay: co-IP; endogenous proteins in GSC 83 and 456 lysates (IP lysis buffer; antibody and protein G agarose beads overnight), IgG control; cells with or without IR, sh-MST4, or inhibitors of ATM, ATR and DNA-PK

binding [1] | binding [2] | Substance
binds | – | HECW2 in HEK293T cells (from UniProt Q9P2P5 1-1572) (enzyme)
– | binds | endogenous MST4 of GSCs (from UniProt Q9P289 1-416) (enzyme)
